Data as given in article PMC2810291, “Identification and characterization of endonuclein binding proteins: evidence of modulatory effects on signal transduction and chaperone activity” (BMC Biochemistry, 2009).

Chains of the proteins cited; added tags and fusions are not shown. Residues count along the entry.
UniProt Q9UBS4, residues 23-358: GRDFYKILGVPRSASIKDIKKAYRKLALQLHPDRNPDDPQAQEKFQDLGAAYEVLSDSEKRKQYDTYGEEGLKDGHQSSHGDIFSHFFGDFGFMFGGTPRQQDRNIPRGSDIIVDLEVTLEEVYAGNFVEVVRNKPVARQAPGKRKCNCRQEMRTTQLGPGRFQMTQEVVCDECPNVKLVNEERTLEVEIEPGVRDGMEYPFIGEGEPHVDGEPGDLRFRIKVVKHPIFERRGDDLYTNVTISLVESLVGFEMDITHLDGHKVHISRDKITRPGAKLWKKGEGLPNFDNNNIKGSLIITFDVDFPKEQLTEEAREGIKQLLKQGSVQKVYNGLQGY
UniProt O14907: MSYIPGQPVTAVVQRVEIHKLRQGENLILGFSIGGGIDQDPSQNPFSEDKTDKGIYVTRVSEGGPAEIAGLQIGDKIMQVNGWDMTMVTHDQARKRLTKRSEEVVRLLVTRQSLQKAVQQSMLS

Biological target: T1, recombinant endonuclein (human, UniProt Q13610 2-501)
T1 construct: human endonuclein, coding region Asn2-Ser501 of the 2309.2 cDNA, in the vector pT7-PL; also called IEF SSP 9502; PWP1 (yeast homologue's name)
Experiment: affinity purification with mass spectrometry; recombinant endonuclein coupled to cyanogen bromide-activated Sepharose 4B; placenta tissue extract applied in MB-buffer (2 mM CaCl2, 1 mM MgCl2, 140 mM NaCl, 10 mM Hepes, pH 7.4); wash with 1 M NaCl; elution with 0.1 M glycine pH 2.7; 2D-PAGE, silver staining, nano-electrospray MS/MS; reference column without endonuclein; only the target purified

Row | binding | Molecule
1 | binds | DnaJ homolog subfamily B member 11 (protein spot No. 4) (from UniProt Q9UBS4 23-358)
2 | binds | Tax interaction protein 1 (protein spots No. 2 and No. 11) (from UniProt O14907 1-124)
3 | binds | stromal cell-derived factor 2-like protein 1 (protein spot No. 8) (protein, UniProt Q9HCN8 29-221) AKTGAELVTCGSVLKLLNTHHRVRLHSHDIKYGSGSGQQSVTGVEASDDANSYWRIRGGSEGGCPRGSPVRCGQAVRLTHVLTGKNLHTHHFPSPLSNNQEVSAFGEDGEGDDLDLWTVRCSGQHWEREAAVRFQHVGTSVFLSVTGEQYGSPIRGQHEVHGMPSANTHNTWKAMEGIFIKPSVEPSAGHDEL
4 | binds | mitochondrial single-stranded DNA binding protein (protein spot No. 17) (protein, UniProt Q04837 17-148) ESETTTSLVLERSLNRVHLLGRVGQDPVLRQVEGKNPVTIFSLATNEMWRSGDSEVYQLGDVSQKTTWHRISVFRPGLRDVAYQYVKKGSRIYLEGKIDYGEYMDKNNVRRQATTIIADNIIFLSDQTKEKE

These are yes or no findings as the source states them, for the method shown. In cells and extracts the contact can be indirect. Here binding means that the protein was enriched with, or labelled near, the bait; the list need not be complete.
